Values from PubChem BioAssay AID1224830 (NIAID, 2016)

Aim: 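Host factors that control LPS-induced TNF expression in human macrophages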 (primary screen)
Cells: human THP-1 monocytic leukaemia cells, TNF dual-luciferase reporter clone, PMA-differentiated to macrophage-like cells
Reagent: siRNA pool against human genes, 50 nM
Time to read-out: LPS for 4 h, given about 3 days after siRNA transfection
Conditions: bacterial LPS (TLR4 ligand), 10 ng/ml
Measured: 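TNF firefly reporter luminescence divided by renilla, normalised to the plate median, then turned into a robust z-score for each replicate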
Scale: TNF reporter robust z-score: higher = stronger TNF reporter response to LPS
Call rule: 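a well is active when its z-score exceeds 2.8 or falls below -1.5; control wells carry no call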
Shown is one part, drawn at random, of about 18,000 deposited reagents. Over the whole deposit, about 2,900 (16%) are marked active. 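Calls are made per well; low scores hint the gene aids the LPS response, high scores that it dampens it.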 A number with no mark means an inactive call. Repeated entries: four replicate wells of each siRNA pool.

Target gene	TNF reporter robust z-score
PTER	0.77
PTER	-0.39
PTER	0.51
PTER	0
NALF1	0.37
NALF1	0.33
NALF1	-0.13
NALF1	-0.3
CNTN1	0.52
CNTN1	2.25
CNTN1	1.36
CNTN1	0.31
HR	5.95 (active)
HR	3.48 (active)
HR	3.95 (active)
HR	4.69 (active)
GOLPH3L	-0.88
GOLPH3L	-0.94
GOLPH3L	-0.85
AKR1C6P	-0.91
AKR1C6P	0.27
AKR1C6P	-0.15
AKR1C6P	0.73
WNT1	3.2 (active)
WNT1	1.09
WNT1	-0.04
WNT1	0.37

No new results follow: 4 of the entries above.
Target gene	TNF reporter robust z-score
CNTN1	2.25
CNTN1	1.36
CNTN1	0.31
HR	5.95 (active)

The listing continues:
Target gene	TNF reporter robust z-score
CPT1A	0.53
CPT1A	1.83
CPT1A	0.94
CPT1A	2.88 (active)
ANXA13	-0.09
ANXA13	0.75
ANXA13	0.89
ANXA13	-0.6
CEBPB	0.21
CEBPB	-0.42
CEBPB	-0.61
CEBPB	0.62
PAPPA	0.76
PAPPA	0.44
PAPPA	-0.31
PAPPA	3.42 (active)
ARV1	-1.26
ARV1	-1.29
ARV1	-1.22
ARV1	-1.45
TAF13	-0.55
TAF13	-0.5
TAF13	-0.37
TAF13	-0.64
ENDOU	0.78
ENDOU	-0.26
ENDOU	0.59
ENDOU	-0.79
ZNF417	-0.63
ZNF417	0.74
ZNF417	0.27
ZNF417	0.49
EPHB3	2.08
EPHB3	1.86
EPHB3	1.82
EPHB3	0.14
H4C4	-0.22
H4C4	-0.18
H4C4	0.42
H4C4	-0.14
API5	-0.36
API5	-0.04
API5	-0.03
API5	-0.72
C1QTNF3	-0.89
C1QTNF3	-0.22
C1QTNF3	-1.44
C1QTNF3	-1.26
